The other results are listed elsewhere or left out.
What follows are compounds tested on T1, CTL2-GFP (C. trachomatis L2/434/Bu, GFP-expressing). Conditions: bulk GFP, single well; 28.5 h, 10 µM; inhibitor.
T1 construct: L2/434/Bu, GFP-expressing
Design: species or system HeLa; Intracellular C. trachomatis growth in HeLa cells, bulk GFP fluorescence relative to DMSO

In order of falling “% of control remaining” value:
1. O=C(CSc1nc(-c2ccc(F)cc2)cc(C(F)(F)F)n1)NCCN1CCOCC1 [CBK266121]  220.425%
2. CN(C)c1cccc(-c2cc(N3CCN(c4ccccn4)CC3)ncn2)c1 [CBK037825]  186.863%
3. O=S(=O)(NC1CCCCC1n1cc(-c2ccccc2)nn1)c1ccc(Cl)cc1 (stereo not shown) [CBK266391]  185.736%
4. Cc1ccc(OCc2occc2C(=O)NCCn2ccnc2C)cc1 [CBK306725]  166.743%
5. COc1ccccc1-c1cn2ccnc2c(NCc2ccccc2)n1 [CBK037372]  164.052%
6. O=C(CN1C(=O)c2ccccc2S1(=O)=O)Nc1ccccc1-c1ccccc1 [CBK266390]  150.762%
7. Cc1cc(COc2cc(NC(C)C)ncn2)no1 [CBK115887]  142.84%
8. CCc1nc(-c2ccc(N(C)C)nc2)n(C)n1 [CBK306897]  141.493%
9. COc1ccc2ncc(C#N)c(Nc3ccc(OC)c(OC)c3)c2c1 [CBK287808]  140.672%
10. O=C(CN1CCCCC1Cn1cccn1)NCc1ccccn1 (stereo not shown) [CBK306146]  140.11%
11. CCc1ccc(NC(=O)CN(CCO)Cc2cc(Br)ccc2F)cc1 [CBK305968]  138.442%
12. CCn1nc(C(=O)Nc2ccccc2-c2ccc(OC)cc2)c2ccccc2c1=O [CBK285864]  136.275%
13. C=CCn1c(S)nnc1COc1cccc2ccccc12 [CBK267292]  135.188%
14. Cc1cccc(N2CCN(CC(=O)Nc3ccc(S(N)(=O)=O)cc3)CC2)c1C [CBK269369]  134.942%
15. O=C(O)c1sccc1S(=O)(=O)NCc1ccc(COCC(F)(F)F)cc1 [CBK296706]  134.267%
16. COc1ccc(CCN2CNc3c(c(=O)n(C)c(=O)n3C)C2)cc1OC [CBK074818]  130.406%
17. CCN(CC)C(=O)CCn1c(-c2cccnc2)cc2cccnc21 [CBK282160]  127.712%
18. Cc1nc2cc(-c3nccn3C)nn2c(N2CCN(c3ccc4c(c3)OCCO4)CC2)c1C [CBK286186]  127.036%
19. O=S1(=O)CCN(Cc2cn(-c3ccccc3)nn2)CC1 [CBK113103]  126.706%
20. COc1ccc(C2c3cc(OC)c(OC)cc3CC(=O)N2c2cccc(C(=O)O)c2)cc1OC (stereo not shown) [CBK296118]  126.403%
21. Cc1nc2c(C(=O)NC3CCOCC3)cnn2c(C)c1Cc1cccc(Br)c1 [CBK165011]  125.897%
22. COc1ccccc1-c1cnc2[nH]c(=O)n(C3CCCCC3)c2n1 [CBK064203]  125.824%
23. Cc1cc2nc(C(=O)NCCCn3ccnc3C(C)C)cc(C)n2n1 [CBK307022]  121.288%
24. COc1cccc(C(=O)Nc2ccccc2C(=O)Nc2cccc(C(=O)O)c2C)c1 [CBK265768]  120.319%
25. O=C(CCNS(=O)(=O)c1ccccc1)N1CCC(Cc2ccccc2)CC1 [CBK270091]  118.616%
26. O=C(O)CC(c1ccccc1)c1ccc2c(c1)OCO2 (stereo not shown) [CBK286983]  118.45%
27. Cc1c(Br)c([N+](=O)[O-])nn1C(C)C(=O)NCc1ccco1 (stereo not shown) [CBK269108]  117.775%
28. O=C(CSc1n[nH]c(=O)n1C1CCCCC1)NCc1ccc(N2CCCC2=O)cc1 [CBK299785]  116.257%
29. CCCOc1c(Cl)cc(/C=C2\N=C(c3ccc(OC)cc3)OC2=O)cc1OCC [CBK098846]  113.417%
30. COc1cccc(OCc2ccc(Cn3ccn(C(=O)CCCC(C)C)c3=O)cc2)c1 [CBK106638]  111.518%
31. CC1(C)CC(=O)Nc2ccccc2S1 [CBK025483]  110.005%
32. CCCCOC(=O)c1ccc(NC(=O)c2c(Cl)cccc2Cl)cc1 [CBK263664]  109.94%
33. Cc1cc2c(cc3c(=O)n(CC(=O)NCC4CC4)nc(C)n32)s1 [CBK284097]  109.528%
34. CC(=O)c1ccc(-c2nc(NC(=O)c3cccc([N+](=O)[O-])c3)cnc2-c2ccc(F)c(Cl)c2)s1 [CBK036816]  108.43%
35. Cc1ccc(-n2c(SCC(=O)NCc3ccccc3)nnc2-c2ccccc2O)c(C)c1 [CBK268892]  107.606%
36. Cn1c(O)c(CCNc2cc([C@H]3C[C@@H](N)C3)nc(C3CC3)n2)cnc1=O [CBK306819]  107.159%
37. CCOc1ccc(-c2cc(C(=O)N3CCN(C)CC3)c3ccccc3n2)cc1 [CBK066900]  106.048%
38. N#CC(/N=C/c1ccc(C#Cc2ccccc2)cc1)=C(C#N)/N=C/c1ccc(C#Cc2ccccc2)cc1 [CBK262066]  105.184%
39. O=S(=O)(c1ccc2ccccc2c1)c1cnns1 [CBK001887]  104.049%
40. COc1ccc(OCCN2CCC3(CC2)CN(C(=O)CO)c2ccccc23)cc1 [CBK131512]  100.218%
41. CCN(CC)C(=O)c1cccc(NS(=O)(=O)c2cccc(C(=O)O)c2)c1 [CBK296943]  100.107%
42. COc1ccc(N2CCN(c3nc(OC)nc(OC)n3)CC2)cc1 [CBK264245]  100%
43. COc1cccc(C(=O)NNC(=O)Nc2ccccc2)c1 [CBK261608]  99.7485%
44. NS(=O)(=O)c1ccc(Nc2nc3nonc3nc2Nc2ccc(S(N)(=O)=O)cc2)cc1 [CBK261110]  97.7302%
45. O=C(N[C@H]1CCN2C(=O)c3cc(-c4ccsc4)ccc3NC(=O)[C@@H]2C1)c1cccs1 [CBK289563]  95.2245%
46. CC(C)(C)c1ccc(OCc2nnc(Sc3nc4ccc([N+](=O)[O-])cc4s3)n2-c2ccccc2)cc1 [CBK263366]  94.4578%
47. CCOC(=O)c1ccnc(-c2cc3ccccc3o2)c1 [CBK149253]  94.0952%
48. CCC(C)(C)c1ccc(S(=O)(=O)NCc2ccc(C(F)(F)F)cc2)cc1 [CBK044820]  75.1271%
49. COc1ccc(N2CCN(C(=O)c3ccc([N+](=O)[O-])o3)CC2)cc1 [CBK091410]  33.4758%

— paper PMC12040169 (PLOS Biology, 2025)
